Measured values taken from patent US20240156789A1, “ORAL FELINE FEED AND METHODS FOR CONTROLLING FLEA INFESTATIONS IN A FELINE” (priority 2021, published 2024).
Some entries share one result that the patent states for a list of compounds.

Tested on: Ctenocephalides felis
Experiment: Example 3: efficacy of afoxolaner and fluralaner liquid formulations given by mouth to cats against fleas
Type: in vivo
Details: liquid formulation, by day 7

Structure (SMILES): O=C(CNC(=O)c1ccc(C2=NOC(c3cc(Cl)cc(C(F)(F)F)c3)(C(F)(F)F)C2)c2ccccc12)NCC(F)(F)F (centres unmarked) [Afoxolaner, 4-{5-[3-chloro-5-(trifluoromethyl)phenyl]-5-(trifluoromethyl)-4,5-dihydroisoxazol-3-yl}-N-{2-oxo-2-[(2,2,2-trifluoroethyl)amino]ethyl}naphthalene-1-carboxamide]
- efficacy (treatment group 2, 0.075 mg/kg daily oral (Days 0-29)): greater than 95%
- efficacy (treatment group 3, 0.225 mg/kg daily oral (Days 0-29)): greater than 95%
